Structures can show the parent of a compound that is named as a salt. This is one part of the list. The calls rarely recur for the same compound in another form.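 In K562 cells expressing nanoluciferase-fused kinases, luminescence was recorded at 4 h intervals between 2 and 18 h, normalized as percent of control with DMSO at 100% and a positive control at 0%. A significant (2 sigma) signal drop marks a time point as decreased. The authors' rule for a hit is not shown and takes in more than the number of time points.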
Key:
Assay in all cases: kinase-Nluc reporter destabilization hit call (1 = scored as downregulated) (binary); higher = compound decreases kinase abundance
Settings in all cases: K562; 2-18 h
ABL1 = ABL1 (UniProt P00519)
AKT1 = AKT1 (UniProt P31749)
ALK = ALK (UniProt Q9UM73)
ARAF = ARAF (UniProt P10398)
AURKA = AURKA (UniProt O14965)
AURKB = AURKB (UniProt Q96GD4)
AURKC = AURKC (UniProt Q9UQB9)
BLK = BLK (UniProt P51451)
BMX = BMX (UniProt P51813)
BRAF = BRAF (UniProt P15056)

Protein sequences, listed by entry. Tags and fused reporters are not part of them. Lines headed by an entry give the natural chain unless they say otherwise; changes in a name come on top.
UniProt P00519, whole entry: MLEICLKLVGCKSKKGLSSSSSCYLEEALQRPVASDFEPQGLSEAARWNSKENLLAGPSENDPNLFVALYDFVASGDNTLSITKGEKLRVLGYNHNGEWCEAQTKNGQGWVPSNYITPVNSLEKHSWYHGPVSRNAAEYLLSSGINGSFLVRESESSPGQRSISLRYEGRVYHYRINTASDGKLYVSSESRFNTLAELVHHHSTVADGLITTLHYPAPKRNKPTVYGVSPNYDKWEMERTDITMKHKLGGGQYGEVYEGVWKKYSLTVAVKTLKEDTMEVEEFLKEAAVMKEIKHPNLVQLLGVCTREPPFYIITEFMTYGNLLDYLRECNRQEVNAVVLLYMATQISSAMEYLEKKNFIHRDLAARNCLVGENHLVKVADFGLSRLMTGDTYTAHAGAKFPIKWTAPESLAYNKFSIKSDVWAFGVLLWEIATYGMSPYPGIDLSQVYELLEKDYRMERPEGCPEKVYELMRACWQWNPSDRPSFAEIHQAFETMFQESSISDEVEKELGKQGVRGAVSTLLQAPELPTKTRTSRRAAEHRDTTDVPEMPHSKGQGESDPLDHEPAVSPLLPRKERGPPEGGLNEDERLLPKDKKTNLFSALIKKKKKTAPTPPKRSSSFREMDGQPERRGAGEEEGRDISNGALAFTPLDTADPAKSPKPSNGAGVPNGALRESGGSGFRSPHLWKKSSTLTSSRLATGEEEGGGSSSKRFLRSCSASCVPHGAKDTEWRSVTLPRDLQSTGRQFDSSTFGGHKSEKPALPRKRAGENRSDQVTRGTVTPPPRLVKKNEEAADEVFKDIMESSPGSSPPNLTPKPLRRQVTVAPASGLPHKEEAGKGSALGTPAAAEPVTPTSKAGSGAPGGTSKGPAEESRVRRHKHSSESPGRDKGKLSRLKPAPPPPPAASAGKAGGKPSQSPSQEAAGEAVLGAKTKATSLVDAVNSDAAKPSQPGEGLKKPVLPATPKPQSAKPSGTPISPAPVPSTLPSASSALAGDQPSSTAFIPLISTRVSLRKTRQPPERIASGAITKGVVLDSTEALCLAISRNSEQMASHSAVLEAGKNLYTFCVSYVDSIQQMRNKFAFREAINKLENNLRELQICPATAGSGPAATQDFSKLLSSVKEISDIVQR
UniProt P31749: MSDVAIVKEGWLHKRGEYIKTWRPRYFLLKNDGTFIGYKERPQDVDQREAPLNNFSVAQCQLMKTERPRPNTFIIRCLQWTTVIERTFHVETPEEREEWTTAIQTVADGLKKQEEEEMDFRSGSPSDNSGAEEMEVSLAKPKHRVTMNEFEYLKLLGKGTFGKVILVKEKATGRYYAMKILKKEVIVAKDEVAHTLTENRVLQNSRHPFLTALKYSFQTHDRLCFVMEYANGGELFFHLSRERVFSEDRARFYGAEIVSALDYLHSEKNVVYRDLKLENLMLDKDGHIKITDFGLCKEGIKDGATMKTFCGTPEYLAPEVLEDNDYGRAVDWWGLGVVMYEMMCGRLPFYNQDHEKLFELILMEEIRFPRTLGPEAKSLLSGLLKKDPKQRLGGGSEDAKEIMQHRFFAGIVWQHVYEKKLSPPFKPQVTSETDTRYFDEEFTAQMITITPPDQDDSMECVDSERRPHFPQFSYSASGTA
UniProt Q9UM73: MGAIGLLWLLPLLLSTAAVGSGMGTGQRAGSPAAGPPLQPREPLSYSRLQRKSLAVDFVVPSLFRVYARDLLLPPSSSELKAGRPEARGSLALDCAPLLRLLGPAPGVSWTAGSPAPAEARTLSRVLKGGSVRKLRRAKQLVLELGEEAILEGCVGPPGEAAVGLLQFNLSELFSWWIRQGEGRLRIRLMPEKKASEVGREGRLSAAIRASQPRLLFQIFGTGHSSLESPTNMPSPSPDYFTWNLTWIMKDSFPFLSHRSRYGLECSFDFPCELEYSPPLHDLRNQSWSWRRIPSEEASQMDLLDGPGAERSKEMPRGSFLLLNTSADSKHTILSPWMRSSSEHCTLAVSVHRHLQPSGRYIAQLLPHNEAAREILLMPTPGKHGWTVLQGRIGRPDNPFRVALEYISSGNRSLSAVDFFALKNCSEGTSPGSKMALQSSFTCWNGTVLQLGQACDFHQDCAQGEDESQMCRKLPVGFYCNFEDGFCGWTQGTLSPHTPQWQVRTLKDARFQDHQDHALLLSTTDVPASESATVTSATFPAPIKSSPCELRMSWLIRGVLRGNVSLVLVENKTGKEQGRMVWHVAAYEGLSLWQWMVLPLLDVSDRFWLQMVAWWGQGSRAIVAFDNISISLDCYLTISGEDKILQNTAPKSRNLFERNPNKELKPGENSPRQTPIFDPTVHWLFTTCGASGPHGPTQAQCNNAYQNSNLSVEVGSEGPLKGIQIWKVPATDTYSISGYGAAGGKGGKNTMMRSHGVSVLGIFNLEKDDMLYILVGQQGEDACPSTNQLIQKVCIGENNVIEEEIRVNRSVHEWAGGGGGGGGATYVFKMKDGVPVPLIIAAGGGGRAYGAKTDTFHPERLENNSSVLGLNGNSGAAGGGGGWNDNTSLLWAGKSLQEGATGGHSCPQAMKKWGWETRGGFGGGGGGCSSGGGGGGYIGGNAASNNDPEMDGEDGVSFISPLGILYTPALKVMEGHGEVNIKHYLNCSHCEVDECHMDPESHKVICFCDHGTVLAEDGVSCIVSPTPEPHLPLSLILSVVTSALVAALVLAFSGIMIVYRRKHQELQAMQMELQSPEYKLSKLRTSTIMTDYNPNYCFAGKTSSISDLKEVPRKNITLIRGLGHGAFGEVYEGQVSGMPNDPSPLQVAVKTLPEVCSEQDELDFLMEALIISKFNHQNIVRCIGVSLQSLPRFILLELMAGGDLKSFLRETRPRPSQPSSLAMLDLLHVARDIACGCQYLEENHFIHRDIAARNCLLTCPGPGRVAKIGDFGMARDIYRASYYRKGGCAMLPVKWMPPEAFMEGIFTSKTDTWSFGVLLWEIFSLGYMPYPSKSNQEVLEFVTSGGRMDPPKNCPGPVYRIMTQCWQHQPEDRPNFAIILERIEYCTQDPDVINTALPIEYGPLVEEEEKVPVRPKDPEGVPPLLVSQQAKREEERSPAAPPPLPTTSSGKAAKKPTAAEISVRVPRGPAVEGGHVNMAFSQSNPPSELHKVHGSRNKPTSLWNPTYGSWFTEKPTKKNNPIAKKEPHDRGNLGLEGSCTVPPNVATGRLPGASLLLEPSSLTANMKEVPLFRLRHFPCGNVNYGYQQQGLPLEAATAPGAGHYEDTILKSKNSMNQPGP
UniProt P10398: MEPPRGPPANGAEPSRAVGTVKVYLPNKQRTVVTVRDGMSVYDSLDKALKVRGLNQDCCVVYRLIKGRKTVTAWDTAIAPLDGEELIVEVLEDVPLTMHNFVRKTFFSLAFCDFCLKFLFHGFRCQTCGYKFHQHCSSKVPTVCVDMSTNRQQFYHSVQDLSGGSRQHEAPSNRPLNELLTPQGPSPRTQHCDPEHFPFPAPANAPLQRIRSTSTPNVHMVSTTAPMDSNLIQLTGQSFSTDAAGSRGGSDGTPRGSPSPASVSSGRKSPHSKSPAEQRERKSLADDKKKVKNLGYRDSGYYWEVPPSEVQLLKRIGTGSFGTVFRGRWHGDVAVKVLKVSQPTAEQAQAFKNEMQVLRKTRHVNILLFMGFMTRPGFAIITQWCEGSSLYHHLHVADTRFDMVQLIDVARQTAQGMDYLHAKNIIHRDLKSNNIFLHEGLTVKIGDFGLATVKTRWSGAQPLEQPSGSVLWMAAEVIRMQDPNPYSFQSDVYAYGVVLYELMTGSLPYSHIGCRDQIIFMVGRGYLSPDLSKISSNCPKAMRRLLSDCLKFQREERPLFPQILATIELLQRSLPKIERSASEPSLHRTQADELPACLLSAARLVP
UniProt O14965: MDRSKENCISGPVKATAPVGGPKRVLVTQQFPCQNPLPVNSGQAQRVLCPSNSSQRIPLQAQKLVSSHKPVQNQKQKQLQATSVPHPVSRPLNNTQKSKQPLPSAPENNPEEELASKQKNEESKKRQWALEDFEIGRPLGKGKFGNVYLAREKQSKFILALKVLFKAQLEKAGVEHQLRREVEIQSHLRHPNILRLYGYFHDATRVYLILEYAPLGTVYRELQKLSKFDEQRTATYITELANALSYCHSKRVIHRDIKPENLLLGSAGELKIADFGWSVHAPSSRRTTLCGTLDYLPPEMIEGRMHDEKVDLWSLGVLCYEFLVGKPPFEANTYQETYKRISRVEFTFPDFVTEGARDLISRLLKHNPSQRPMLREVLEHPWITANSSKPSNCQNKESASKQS
UniProt Q96GD4, whole entry: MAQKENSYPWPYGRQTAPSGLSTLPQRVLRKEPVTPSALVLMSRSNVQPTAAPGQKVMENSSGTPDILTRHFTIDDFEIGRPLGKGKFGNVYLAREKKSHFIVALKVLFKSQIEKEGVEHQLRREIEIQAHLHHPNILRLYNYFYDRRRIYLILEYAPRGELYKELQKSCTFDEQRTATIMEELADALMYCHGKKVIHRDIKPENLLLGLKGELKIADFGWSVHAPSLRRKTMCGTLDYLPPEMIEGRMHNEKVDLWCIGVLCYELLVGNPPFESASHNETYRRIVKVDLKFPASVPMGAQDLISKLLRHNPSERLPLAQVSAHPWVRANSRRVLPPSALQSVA
UniProt Q9UQB9: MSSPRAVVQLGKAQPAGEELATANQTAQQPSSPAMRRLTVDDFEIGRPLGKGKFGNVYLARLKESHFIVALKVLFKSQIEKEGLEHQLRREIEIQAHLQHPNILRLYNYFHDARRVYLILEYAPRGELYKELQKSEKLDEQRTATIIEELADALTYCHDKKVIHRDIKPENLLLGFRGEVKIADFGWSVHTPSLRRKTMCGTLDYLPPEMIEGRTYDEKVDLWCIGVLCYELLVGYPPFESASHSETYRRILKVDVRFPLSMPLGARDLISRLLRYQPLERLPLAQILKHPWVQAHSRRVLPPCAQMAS
UniProt P51813: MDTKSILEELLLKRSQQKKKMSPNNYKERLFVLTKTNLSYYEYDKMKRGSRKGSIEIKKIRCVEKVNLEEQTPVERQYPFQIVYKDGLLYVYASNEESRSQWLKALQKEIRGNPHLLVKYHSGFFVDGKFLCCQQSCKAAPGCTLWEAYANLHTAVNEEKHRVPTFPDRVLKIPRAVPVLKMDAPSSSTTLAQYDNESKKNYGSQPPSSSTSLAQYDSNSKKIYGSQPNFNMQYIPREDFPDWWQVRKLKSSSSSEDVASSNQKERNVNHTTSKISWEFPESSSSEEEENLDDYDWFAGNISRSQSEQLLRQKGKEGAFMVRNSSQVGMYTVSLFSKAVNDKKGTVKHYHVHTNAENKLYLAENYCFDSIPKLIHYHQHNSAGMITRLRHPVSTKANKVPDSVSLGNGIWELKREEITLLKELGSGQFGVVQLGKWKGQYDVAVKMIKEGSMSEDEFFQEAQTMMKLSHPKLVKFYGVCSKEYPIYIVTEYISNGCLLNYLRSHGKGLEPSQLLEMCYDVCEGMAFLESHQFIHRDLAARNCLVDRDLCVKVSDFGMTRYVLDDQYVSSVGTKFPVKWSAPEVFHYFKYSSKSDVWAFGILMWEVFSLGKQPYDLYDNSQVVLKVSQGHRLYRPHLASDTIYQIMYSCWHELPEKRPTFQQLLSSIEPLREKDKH
UniProt P15056, whole entry, looked up: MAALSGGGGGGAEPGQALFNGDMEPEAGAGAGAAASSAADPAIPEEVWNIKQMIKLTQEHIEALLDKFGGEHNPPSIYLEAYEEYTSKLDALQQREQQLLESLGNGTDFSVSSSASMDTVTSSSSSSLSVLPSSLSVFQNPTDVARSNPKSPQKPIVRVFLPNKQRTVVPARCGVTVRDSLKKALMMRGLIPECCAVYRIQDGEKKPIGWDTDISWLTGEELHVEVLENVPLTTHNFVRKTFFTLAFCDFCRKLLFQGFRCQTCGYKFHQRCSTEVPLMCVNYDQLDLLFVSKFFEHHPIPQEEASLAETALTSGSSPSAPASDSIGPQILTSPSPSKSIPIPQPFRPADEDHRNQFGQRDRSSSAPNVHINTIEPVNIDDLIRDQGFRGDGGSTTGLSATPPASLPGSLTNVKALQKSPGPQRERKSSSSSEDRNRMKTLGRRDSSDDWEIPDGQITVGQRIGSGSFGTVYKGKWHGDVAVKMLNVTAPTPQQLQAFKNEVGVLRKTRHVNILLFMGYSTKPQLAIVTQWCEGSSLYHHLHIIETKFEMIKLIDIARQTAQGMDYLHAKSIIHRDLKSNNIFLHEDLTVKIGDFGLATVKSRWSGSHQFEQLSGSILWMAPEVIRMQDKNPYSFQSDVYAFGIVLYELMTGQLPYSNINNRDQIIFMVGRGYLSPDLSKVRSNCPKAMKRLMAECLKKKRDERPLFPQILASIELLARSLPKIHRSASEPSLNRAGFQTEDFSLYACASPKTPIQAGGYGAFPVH

Measured: kinase-Nluc reporter destabilization hit call

CC[C@@H]1[C@H](F)C(=O)N[C@@H]1COc1nccc2cc(C(N)=O)c(OC)cc12 (10 µM)
inactive: ABL1 = 0 | AKT1 = 0 | ALK 0 | ARAF 0 | AURKA 0 | AURKB 0 | AURKC 0 | BLK 0 | BMX 0 | BRAF 0

NCCCCCCNS(=O)(=O)c1cccc2c(Cl)cccc12 [W-7 (hydrochloride)] (10 µM)
inactive: ABL1 = 0 | AKT1 = 0 | ALK 0 | ARAF 0 | AURKA 0 | AURKB 0 | AURKC 0 | BLK 0 | BMX 0 | BRAF 0

CCN1/C(=C/C(C)=O)Sc2ccc(OC)cc21 (10 µM)
inactive: ABL1 = 0 | AKT1 = 0 | ALK 0 | ARAF 0 | AURKA 0 | AURKB 0 | AURKC 0 | BLK 0 | BMX 0 | BRAF 0

CSc1ccc(CN2CCCC(Nc3ccc4[nH]ncc4c3)C2)cc1 (stereo not given) [Rho-Kinase-IN-1] (10 µM)
inactive: ABL1 = 0 | AKT1 = 0 | ALK 0 | ARAF 0 | AURKA 0 | AURKB 0 | AURKC 0 | BLK 0 | BMX 0 | BRAF 0

COc1cc(C(=O)N2CCC(N3CCN(C)CC3)CC2)ccc1Nc1ncc2c(n1)N(C)c1ccccc1C(=O)N2C (10 µM)
inactive: ABL1 = 0 | AKT1 = 0 | ALK 0 | ARAF 0 | AURKA 0 | AURKB 0 | AURKC 0 | BLK 0 | BMX 0 | BRAF 0

CC(C)(C)c1cc(C(c2cc3c(cc2O)OCO3)N2CCOCC2)cc(C(C)(C)C)c1O (stereo not given) (2.5 µM)
inactive: ABL1 = 0 | AKT1 = 0 | ALK 0 | ARAF 0 | AURKA 0 | AURKB 0 | AURKC 0 | BLK 0 | BMX 0 | BRAF 0

C[C@@H]1COCCN1c1cc(=O)n2c(n1)N(Cc1cncc(Cl)c1)[C@H](C(F)(F)F)CC2 (10 µM)
inactive: ABL1 = 0 | AKT1 = 0 | ALK 0 | ARAF 0 | AURKA 0 | AURKB 0 | AURKC 0 | BLK 0 | BMX 0 | BRAF 0

COC(=O)N[C@@H](C)CNc1nccc(-c2cn(C(C)C)nc2-c2cc(Cl)cc(NS(C)(=O)=O)c2F)n1 [Encorafenib] (10 µM)
inactive: ABL1 = 0 | AKT1 = 0 | ALK 0 | ARAF 0 | AURKA 0 | AURKB 0 | AURKC 0 | BLK 0 | BMX 0 | BRAF 0

N=C(N)NC(=N)NCCc1ccccc1 [Phenformin (hydrochloride)] (10 µM)
inactive: ABL1 = 0 | AKT1 = 0 | ALK 0 | ARAF 0 | AURKA 0 | AURKB 0 | AURKC 0 | BLK 0 | BMX 0 | BRAF 0

O=c1nc(N2CCOCC2)oc2c(-c3cccc4c3sc3ccccc34)cccc12 (10 µM)
inactive: ABL1 = 0 | AKT1 = 0 | ALK 0 | ARAF 0 | AURKA 0 | AURKB 0 | AURKC 0 | BLK 0 | BMX 0 | BRAF 0

O=c1[nH]ccc2cc(OC3CCNCC3)ccc12 (10 µM)
inactive: ABL1 = 0 | AKT1 = 0 | ALK 0 | ARAF 0 | AURKA 0 | AURKB 0 | AURKC 0 | BLK 0 | BMX 0 | BRAF 0

CCCCOc1ccc(CC/C=C2\SC(=O)N(CCN)C2=O)cc1 [K145 (hydrochloride)] (2.5 µM)
inactive: ABL1 = 0 | AKT1 = 0 | ALK 0 | ARAF 0 | AURKA 0 | AURKB 0 | AURKC 0 | BLK 0 | BMX 0 | BRAF 0

COc1cc(N2CCC(O)CC2)ccc1Nc1cc(Nc2ccccc2S(=O)(=O)C(C)C)c2cc[nH]c2n1 (10 µM)
inactive: ABL1 = 0 | AKT1 = 0 | ALK 0 | ARAF 0 | AURKA 0 | AURKB 0 | AURKC 0 | BLK 0 | BMX 0 | BRAF 0

Cc1ccc(-c2ncn(-c3ccc(Nc4nccc(-c5cccc(N6CCOCC6)c5)n4)cc3)n2)cn1 (10 µM)
inactive: ABL1 = 0 | AKT1 = 0 | ALK 0 | ARAF 0 | AURKA 0 | AURKB 0 | AURKC 0 | BLK 0 | BMX 0 | BRAF 0

COc1ccc(CN2C3CC2CN(c2ccc(-c4cc(OCC(C)(C)O)cn5ncc(C#N)c45)cn2)C3)cn1 [Selpercatinib] (10 µM)
inactive: ABL1 = 0 | AKT1 = 0 | ALK 0 | ARAF 0 | AURKA 0 | AURKB 0 | AURKC 0 | BLK 0 | BMX 0 | BRAF 0

Nc1cccc(S(=O)(=O)N2CCCN(S(=O)(=O)c3ccc4c(c3)OCCO4)CC2)c1 (10 µM)
inactive: ABL1 = 0 | AKT1 = 0 | ALK 0 | ARAF 0 | AURKA 0 | AURKB 0 | AURKC 0 | BLK 0 | BMX 0 | BRAF 0

O=C(CCCCCn1cc(Nc2ncc(Cl)c(Nc3ccc(Cl)cc3)n2)cn1)NO (2.5 µM)
inactive: ABL1 = 0 | AKT1 = 0 | ALK 0 | ARAF 0 | AURKA 0 | AURKB 0 | AURKC 0 | BLK 0 | BMX 0 | BRAF 0

CCOc1nc(Nc2ccc(C(=O)N3CCOCC3)cc2OC)nc2[nH]ccc12 [LRRK2 inhibitor 1] (2.5 µM)
inactive: ABL1 = 0 | AKT1 = 0 | ALK 0 | ARAF 0 | AURKA 0 | AURKB 0 | AURKC 0 | BLK 0 | BMX 0 | BRAF 0

N#Cc1ccc(-c2c(-c3ncn[nH]3)sc(N3CCOCC3)c2C#N)c(F)c1 (10 µM)
inactive: ABL1 = 0 | AKT1 = 0 | ALK 0 | ARAF 0 | AURKA 0 | AURKB 0 | AURKC 0 | BLK 0 | BMX 0 | BRAF 0

CC(C)(C)Cn1c(N)nc2ccc(-c3[nH]c(C(C)(C)C)nc3-c3ccc(F)cc3)nc21 [Ralimetinib dimesylate] (2.5 µM)
inactive: ABL1 = 0 | AKT1 = 0 | ALK 0 | ARAF 0 | AURKA 0 | AURKB 0 | AURKC 0 | BLK 0 | BMX 0 | BRAF 0

Nc1cc(C(F)F)c(-c2nc(N3C4CCC3COC4)nc(N3C4CCC3COC4)n2)cn1 (2.5 µM)
inactive: ABL1 = 0 | AKT1 = 0 | ALK 0 | ARAF 0 | AURKA 0 | AURKB 0 | AURKC 0 | BLK 0 | BMX 0 | BRAF 0

COc1ccc2c(c1)c(C1=C(c3c[nH]c4ccccc34)C(=O)NC1=O)cn2CCCN(C)C (10 µM)
inactive: ABL1 = 0 | AKT1 = 0 | ALK 0 | ARAF 0 | AURKA 0 | AURKB 0 | AURKC 0 | BLK 0 | BMX 0 | BRAF 0

Cn1cc(-c2ccc3nnc(C(F)(F)c4ccc5ncccc5c4)n3n2)cn1 (10 µM)
inactive: ABL1 = 0 | AKT1 = 0 | ALK 0 | ARAF 0 | AURKA 0 | AURKB 0 | AURKC 0 | BLK 0 | BMX 0 | BRAF 0

Ordered by SMILES length (smallest number first): part of the list above
N#Cc1ccc(-c2c(-c3ncn[nH]3)sc(N3CCOCC3)c2C#N)c(F)c1 (10 µM)
inactive: ABL1 = 0 | AKT1 = 0 | ALK 0 | ARAF 0 | AURKA 0 | AURKB 0 | AURKC 0 | BLK 0 | BMX 0 | BRAF 0

Nc1cc(C(F)F)c(-c2nc(N3C4CCC3COC4)nc(N3C4CCC3COC4)n2)cn1 (2.5 µM)
inactive: ABL1 = 0 | AKT1 = 0 | ALK 0 | ARAF 0 | AURKA 0 | AURKB 0 | AURKC 0 | BLK 0 | BMX 0 | BRAF 0

CC(C)(C)Cn1c(N)nc2ccc(-c3[nH]c(C(C)(C)C)nc3-c3ccc(F)cc3)nc21 [Ralimetinib dimesylate] (2.5 µM)
inactive: ABL1 = 0 | AKT1 = 0 | ALK 0 | ARAF 0 | AURKA 0 | AURKB 0 | AURKC 0 | BLK 0 | BMX 0 | BRAF 0

Later entries:

CCN1C(=O)CNc2ncc(-c3ccc(-c4nc[nH]n4)nc3C)nc21 [CC-115 (hydrochloride)] (2.5 µM)
active: ABL1 = 1
inactive: AKT1 = 0 | ALK 0 | ARAF 0 | AURKA 0 | AURKB 0 | AURKC 0 | BLK 0 | BMX 0 | BRAF 0

Cc1cnc(Nc2ccc(N3CCN(C)CC3)cc2)nc1Nc1cccc(S(=O)(=O)NC(C)(C)C)c1 (2.5 µM)
inactive: ABL1 = 0 | AKT1 = 0 | ALK 0 | ARAF 0 | AURKA 0 | AURKB 0 | AURKC 0 | BLK 0 | BMX 0 | BRAF 0

O=C(CO)N1CCC(c2n[nH]c(-c3ccc(Cl)cc3)c2-c2ccncn2)CC1 (10 µM)
inactive: ABL1 = 0 | AKT1 = 0 | ALK 0 | ARAF 0 | AURKA 0 | AURKB 0 | AURKC 0 | BLK 0 | BMX 0 | BRAF 0

Nc1ncc(-c2ccc(C(=O)N3CCNCC3)cc2)nc1-c1ccc(C(F)(F)F)cc1 (10 µM)
inactive: ABL1 = 0 | AKT1 = 0 | ALK 0 | ARAF 0 | AURKA 0 | AURKB 0 | AURKC 0 | BLK 0 | BMX 0 | BRAF 0

Cc1cc2ncc(-c3ccccc3)nc2cc1C (10 µM)
inactive: ABL1 = 0 | AKT1 = 0 | ALK 0 | ARAF 0 | AURKA 0 | AURKB 0 | AURKC 0 | BLK 0 | BMX 0 | BRAF 0

CCc1c(C)sc(NC(=S)NC(=O)c2ccc(Cl)cc2)c1C(N)=O (10 µM)
inactive: ABL1 = 0 | AKT1 = 0 | ALK 0 | ARAF 0 | AURKA 0 | AURKB 0 | AURKC 0 | BLK 0 | BMX 0 | BRAF 0
